The other results are listed elsewhere or left out. Further columns of the screen follow, without active or inactive calls. Most of these compounds were active or inconclusive in the main read-out, so they are no random draw. The note in brackets gives the kind of curve behind each potency; many fits are weak.
Assay: qHTS Assay for Lipid Storage Modulators in Drosophila S3 Cells;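 as to cell number change: cells counted by Cell Tracker Red CMTPX staining in the red channel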
Details: BODIPY lipid droplet fluorescence, 18-24 h; for cell number change: measured here: cell count max response, cells fed with added oleic acid
Method in brief: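 Drosophila S3 cells got compounds at several concentrations plus oleic acid (400 uM solution). Laser-scanning cytometry with 488 nm excitation read lipid droplets at 500-530 nm and cells at 575-640 nm. Percent activity was relative to 20 uM Triacsin C.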

[1] = measured here: cell number channel AC50, cells fed with added oleic acid
[2] = measured here: lipid fluorescence (Fed channel) AC50, cells fed with added oleic acid

SMILES | cell number change [%] | AC50 [1] | AC50 [2]
CCOC(=O)C1=C(C)OC(N)=C(C#N)C1c1ccc(O)c(OC)c1 (stereo not drawn) | -86.8 | 14.6 µM [falling, partial curve] | 29.1 µM [rising, single point]
CCC(C)(C)n1nnnc1CN1CCC(c2nc3ccc(C)cc3[nH]2)CC1 | 19.9 |  | 6.51 µM [rising, single point]
COc1ccccc1N1C(=O)S/C(=C\c2ccc(C)s2)C1=O | 81.1 | 29.1 µM [rising, single point] | 
CCOC(=O)c1c(C)c(C(=O)NCC2CCCO2)c(C)n1C (stereo not drawn) |  |  | 5.17 µM [falling, single point]
COc1cc2c(cc1OC)C(C)N(C(=O)c1cc3n(n1)C(C(F)(F)F)CC(c1ccco1)N3)CC2 (stereo not drawn) | -19.3 |  | 18.4 µM [falling, single point]
Cc1csc(=O)n1CC(=O)OC(C)C(=O)Nc1cccc(Cl)c1 (stereo not drawn) | -11 |  | 
COc1cc2c(cc1OC)C(c1ccccc1)CC2=O (stereo not drawn) |  |  | 6.51 µM [rising, single point]
Cc1ccccc1NC(=O)COC(=O)C1C2CC3OC(=O)C1C3C2 (stereo not drawn) |  | 1.84 µM [rising, partial curve] | 29.1 µM [falling, single point]
CCc1ccc(NC(=O)c2sc3nc4n(c(=O)c3c2C)CCC4)cc1 |  |  | 1.84 µM [falling, full curve]
O=C(CSc1ccc(-c2ccco2)nn1)NC1CCCCC1 | 32.8 |  | 4.11 µM [rising, full curve]
CN1C(=O)CC(c2ccccc2)C1=O (stereo not drawn) | -2.7 |  | 1.03 µM [rising, full curve, poor fit]
CC1CCN(CCCNC(=O)C2CCC(CNS(=O)(=O)c3ccccc3)CC2)CC1 (stereo not drawn) | -4.56 |  | 29.1 µM [rising, single point]
Cc1onc(-c2ccccc2)c1C(=O)Nc1sccc1C#N | 18.5 |  | 13 µM [falling, partial curve]
CCOC(=O)C1=C(c2ccccc2)NC(=O)N(C(C)=O)C1c1cccc([N+](=O)[O-])c1 (stereo not drawn) | 107 | 20.6 µM [rising, single point] | 
Nc1cnc(-c2ccccc2)nc1Cl | 20.2 |  | 16.4 µM [rising, single point]
Cc1cc(SCC(=O)Nc2c(C)n(C)n(-c3ccccc3)c2=O)nc2ccccc12 | 16.7 |  | 29.1 µM [rising, single point]
Cc1nnc(SCC(=O)N(C2CCCCC2)C2CCS(=O)(=O)C2)n1C (stereo not drawn) | 1.69 |  | 1.16 µM [rising, full curve, poor fit]
O=[N+]([O-])c1ccc(-c2nnc(-c3ccccc3)c(N3CCOCC3)n2)cc1 |  |  | 0.13 µM [rising, partial curve, poor fit]
Cc1cccc(C)c1NC(=O)CNC(=O)CCNC(=O)c1ccco1 | 4.69 |  | 0.731 µM [falling, full curve, poor fit]
O=C(CNC(=O)c1ccc(Br)cc1)NCC(=O)OCc1ccc(Cl)cc1 | -22.1 |  | 

Some of these compounds in order of molecular weight, ascending:
SMILES | cell number change [%] | AC50 [1] | AC50 [2]
Nc1cnc(-c2ccccc2)nc1Cl | 20.2 |  | 16.4 µM [rising, single point]
COc1ccccc1N1C(=O)S/C(=C\c2ccc(C)s2)C1=O | 81.1 | 29.1 µM [rising, single point] | 
CCc1ccc(NC(=O)c2sc3nc4n(c(=O)c3c2C)CCC4)cc1 |  |  | 1.84 µM [falling, full curve]

(continued)

SMILES | cell number change [%] | AC50 [1] | AC50 [2]
CCOC(=O)N1CCN(C(=O)c2c[nH]c3ccc(S(=O)(=O)N(C)c4cccc(C)c4)cc3c2=O)CC1 | -3.98 |  | 
COc1ccccc1CN(C)C(=O)c1ccc2c(c1)NC(=O)CS2 | 73.9 | 13 µM [rising, partial curve] | 2.31 µM [rising, partial curve]
CCOC(=O)c1c(C)[nH]c(C(=O)CN2CC(C)OC(C)C2)c1C (stereo not drawn) | -27.6 |  | 14.6 µM [falling, partial curve, poor fit]
O=C(Nc1cccc(F)c1)c1ccc(Br)o1 | 14.2 |  | 29.1 µM [rising, single point]
CC(=O)Nc1cccc(OCC(=O)NS(=O)(=O)c2ccc(C)cc2)c1 | -16.9 |  | 9.2 µM [falling, partial curve, poor fit]
Cc1nc2cnccc2n1C | -92.4 | 18.4 µM [falling, partial curve] | 18.4 µM [falling, partial curve]
COc1ccc(NC2CCCN(C(=O)CN3CCOC3=O)C2)cc1OC (stereo not drawn) |  |  | 29.1 µM [rising, single point]
C=CCOc1ccc(/C=C(\C#N)C(=O)Nc2ccccn2)cc1 | -18.1 |  | 
O=C1CN(S(=O)(=O)c2ccc(F)cc2)c2ccccc2N1 | 4.53 |  | 29.1 µM [rising, single point]
CCc1nccn1CCC(=O)N1CCCC(Nc2ccc(C(C)C)cc2)C1 (stereo not drawn) | 28.7 |  | 
COC(=O)c1cnc2c(C(F)(F)F)cccc2c1OC | -2.64 |  | 29.1 µM [rising, single point]
Cc1ccccc1Nc1nc(N)nc(COC(=O)c2cccc(S(=O)(=O)NCc3ccccc3)c2)n1 | -50 | 2.59 µM [falling, full curve, poor fit] | 3.26 µM [rising, full curve]
Cc1cc2cc(CNS(=O)(=O)c3ccc4ccccc4c3)ccc2n1C | -12.4 |  | 29.1 µM [falling, single point]
O=c1[nH]c(CN2CCN(S(=O)(=O)/C=C/c3ccccc3)CC2)nc2ccccc12 |  |  | 1.46 µM [rising, partial curve]
CC(C)c1ccc(COc2ccc(C(=O)N3CCOCC3)cc2)cc1 | -50.2 | 14.6 µM [falling, single point] | 18.4 µM [falling, partial curve]
COc1cccc(CNc2ccc3[nH]c(=O)[nH]c3c2)c1OCc1ccccc1 | 4.21 |  | 0.291 µM [falling, single point]
Brc1cc(Br)c(Oc2cc(Br)c(Br)cc2Br)cc1Br | 18.4 |  | 0.326 µM [falling, partial curve]
CN1C(=O)Cc2cc(S(=O)(=O)N3CCOCC3)ccc21 | 65.3 | 5.8 µM [rising, full curve] | 4.61 µM [rising, single point]
COc1ccc(CC(=O)OCC(=O)Nc2cccc(Br)c2)cc1 | 17.1 |  | 
O=C(CN1C(=O)NC2(CCCCC2)C1=O)Oc1ccc2c(C(F)(F)F)cc(=O)oc2c1 | 1.2 |  | 

— PubChem BioAssay AID2685 (National Center for Advancing Translational Sciences (NCATS), 2010)
